Reference: PubChem BioAssay AID504808 (Drosophila RNAi Screening Center, 2011)
In all, the deposit lists about 21,000 reagents; below is a random part of those that have a named target and a result. Of all reagents, 18 (0.084%) were called active. 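Raw counts without plate normalisation, one of two replicates; the ratio scores behind the calls were not deposited.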 The numbers tell different reagents against one gene apart. Names joined by + are all predicted targets of the reagent. Not given: the amount of reagent, the time to read-out.

Test: 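Chromatin factors that keep E2F targets switched off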 (primary screen)
Cells: Drosophila S2 cells
Reagent: long dsRNA against Drosophila genes
Measurement: 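Firefly luciferase driven by E2F sites, normalised to Renilla luciferase on the same minimal promoter, measured by plate reader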
Scale: E2F firefly: higher = more E2F reporter activity; Renilla normaliser: higher = more normaliser reporter signal
Rule for the call: 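a knock-down counted as active when the firefly/Renilla E2F signal rose above 50%, a threshold chosen arbitrarily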

gene knocked down	reagent	E2F firefly, rep 1	Renilla normaliser, rep 1	call
CG18304	1	1.52e5	5704	inactive
obst-J	1	1.35e5	6893	inactive
Dro	1	1.04e5	4706	inactive
ZnT49B	1	93012	3907	inactive
CG17036	1	97288	3808	inactive
E(bx)	1	1.14e5	4972	inactive
E(bx)	2	1.06e5	5388	inactive
E(bx)	3	78866	3566	inactive
CG10232	1	1.03e5	5204	inactive
Magi	1	80397	2979	inactive
Magi	2	87782	3767	inactive
CG30031 + deltaTry + gammaTry	1	97730	4255	inactive
CG15465	1	1.16e5	5087	inactive
CG31106	1	1.20e5	6763	inactive
fsd	1	1.14e5	4959	inactive
CG7987	1	64897	3614	inactive
Mctp	1	1.56e5	5517	inactive
GstT3	1	1.43e5	6926	inactive
Cyp6a16Psi (retired record)	1	1.51e5	5205	inactive
Mlc1	1	97042	5657	inactive
CG31091	1	1.13e5	5693	inactive
CG14367	1	1.12e5	6584	inactive
RpS16	1	93426	4960	inactive
Vps20	1	97416	4003	inactive
CG8891	1	1.56e5	5236	inactive
Khc	1	69098	3589	inactive
mib1	1	1.76e5	8134	inactive
I-t	1	1.40e5	6237	inactive
B9d1	1	1.21e5	6041	inactive
CG17196	1	1.06e5	5903	inactive
Jheh1	1	74575	3144	inactive
Cyp316a1	1	96080	4069	inactive
CG8135 + BBIP1	1	77612	3989	inactive
CG8135 + BBIP1	2	1.41e5	5654	inactive
